For at least one compound, name, drawing or mass did not settle the structure.
Legend:
protein kinase Cζ [1] = assay: Immunofluorescence staining of protein kinase Cζ localisation in endothelial cell monolayers; type: cell-based, human; conditions: 10 μM pre-treatment, then thrombin 0.2 U/ml
Method: (§1) Human umbilical vein endothelial cells were grown in M119 medium with 20% foetal calf serum (FCS) as described (Litwin, M., Clark, K., Noack, L., Furze, J., Berndt, M., Albelda, S., Vadas, M., Gamble, J. (1997) J Cell Biol. 139:219-28). Cells were used at passage 4 or less. For infection with adenoviral constructs, cells were grown to 80% confluence and exposed to 2.5×10^6 plaque forming units/25 cm^2 culture area for 2 hours in M119 medium with 2% FCS and a further 22 hours with 20% FCS.
6×10^4 endothelial cells were cultured in fibronectin coated glass LabTek chamber slides (Nalge Nunc International, Naperville, Ill., USA) and incubated for 3 days prior to staining. Cells were then treated with angiopoietin-1, thrombin and/or bisindolylmaleimnide I, as required. Cells were washed once in PBS, fixed in 4% paraformnaldehyde/PBS for 5 minutes, permeabilized with acetone for 5 min at −20° C. and then washed twice with PBS. The fixed cells were incubated with rabbit anti-protein kinase Cζ immunoaffmity purified IgG or anti-protein kinase Cλ (BD Transduction Laboratories, San Diego, Calif., USA) overnight at 4° C. followed by FITC-conjugated anti-rabbit antibody (Rockland, Gilbertsville Pa., USA). Coverslips were mounted using fluorescent microscopy mounting medium (Dako Corp., Carpinteria, Calif., USA). […]

protein kinase Cζ [2] = assay: Immunoblotting for phosphorylated Thr410 of over-expressed protein kinase Cζ in endothelial cells; type: cell-based, human; conditions: 10 μM pre-treatment, then thrombin 0.2 U/ml; FLAG-protein kinase Cζ over-expressing cells
Method: as §1
Endothelial cells were plated into fibronectin coated flasks before infection as above. Following infection, cells were serum depleted (0.2% FCS) overnight. Cells were then treated with angiopoietin-1, thrombin and/or bisindolylmaleimide I, as required, lysed in ice-cold lysis buffer (50 mM Tris.HCl, pH 7.4, with 1% NP-40, 150 mM NaCl, 2 mM EGTA, 1 mM NaPO4, 100 mM NaF, 10 mM sodium pyrophosphate and protease inhibitor cocktail). Protein concentrations were assayed using Bradford Reagent (BioRad, Hercules, Calif., USA). […] After washing, membranes were incubated with anti-rabbit secondary antibody and reactive bands were detected by chemiluminescence (ECL Western Blotting Detection Reagents, Amersham Pharmacia Biotech, Little Chalfont, England, UK). […]

O=c1cc(N2CCOCC2)oc2c(-c3ccccc3)cccc12 [LY294002]
effect on thrombin stimulated protein kinase Cζ relocalisation to the membrane (protein kinase Cζ [1]): blocked both protein kinase Cζ relocalisation | effect on thrombin stimulated protein kinase Cζ phosphorylation (Thr410) (protein kinase Cζ [2]): blocked

— patent US20060111286A1, “Method of modulating endothelial cell activity” (priority 2002, published 2006)
